Experimental data from publication PMC3979408.
These are yes or no findings as the source states them, for the method shown. In cells and extracts the contact can be indirect. A yes stands for co-enrichment or nearness to the bait. Other partners may have been found. Tags and fused reporters may be left off the sequences shown. Each block holds one molecule with its values, some of them ahead of it.

The chains behind the UniProt entries cited, without tags or fusion partners.
UniProt Q9Y265: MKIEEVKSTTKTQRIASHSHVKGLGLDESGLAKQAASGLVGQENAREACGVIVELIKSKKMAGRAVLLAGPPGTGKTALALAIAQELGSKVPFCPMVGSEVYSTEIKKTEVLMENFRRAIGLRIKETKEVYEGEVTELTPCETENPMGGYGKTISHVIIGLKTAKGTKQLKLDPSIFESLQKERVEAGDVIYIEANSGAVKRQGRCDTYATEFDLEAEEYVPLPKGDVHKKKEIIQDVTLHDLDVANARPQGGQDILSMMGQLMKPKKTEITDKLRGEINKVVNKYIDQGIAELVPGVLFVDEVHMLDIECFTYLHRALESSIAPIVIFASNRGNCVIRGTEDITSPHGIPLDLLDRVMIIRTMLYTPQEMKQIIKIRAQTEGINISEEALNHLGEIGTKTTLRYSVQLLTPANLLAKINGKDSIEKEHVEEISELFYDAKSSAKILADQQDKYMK

Target: T1, Halo-tagged WBSCR22/metastasis-related methyltransferase 1 (Merm1) (human) (UniProt O43709)
T1 sequence: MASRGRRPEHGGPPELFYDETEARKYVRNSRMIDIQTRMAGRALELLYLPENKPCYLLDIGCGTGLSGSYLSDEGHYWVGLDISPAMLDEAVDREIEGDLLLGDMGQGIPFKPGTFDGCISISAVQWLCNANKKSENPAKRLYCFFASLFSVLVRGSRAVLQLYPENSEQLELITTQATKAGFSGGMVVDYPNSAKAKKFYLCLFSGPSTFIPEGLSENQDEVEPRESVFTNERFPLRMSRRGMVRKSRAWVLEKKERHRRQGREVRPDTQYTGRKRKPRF
Assay: affinity purification with mass spectrometry; Halo-Merm1 expressed in HEK293T; DNase-treated lysate (150 mM NaCl, 0.5% Triton X-100, pH 7.4) bound to Halo-link resin overnight at 4 °C, released with TEV protease, SDS-PAGE, LC-MS/MS; Halo-tag alone as control

- binding: binds
Molecule: RUVBL1 (from UniProt Q9Y265 1-456)

- binding: binds
Molecule: ubiquitin (human (endogenous in HEK293T))

- binding: binds
B1: TRMT112 (protein, UniProt Q9UI30 1-125)
chain: MKLLTHNLLSSHVRGVGSRGFPLRLQATEVRICPVEFNPNFVARMIPKVEWSAFLEAADNLRLIQVPKGPVEGYEENEEFLRTMHHLLLEVEVIEGTLQCPESGRMFPISRGIPNMLLSEEETES
